Values from PubChem BioAssay AID1259254 (NCATS, 2017).

Screen: 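Genome-wide screen for genes that prevent DNA re-replication in cancer cells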 (primary screen)
Cells: human HCT116 colorectal cancer cells
Reagent: single siRNA against human genes
Timing: 3 days
Measurement: 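Nuclei stained with Hoechst and imaged; cell-cycle phase assigned by DNA content; G2 share scaled per plate, non-targeting siRNA 0%, GMNN siRNA 100%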
Reading the numbers: G2 robust z-score and G2 cells, % of GMNN control: higher = more G2 cells, more excess DNA replication; raw share of cells in G2: higher = larger share of cells with G2 DNA content
Active means: 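Active siRNAs have a G2 robust z of 5 or more median absolute deviations over the median, which in these data means about 38% or higher of GMNN control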
Shown is one part, drawn at random, of about 59,000 reagents tested. About 1,550 of them (2.6%) were called active. 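G2 share is only a proxy for re-replication; each gene was hit by three separate siRNAs, and active genes were retested.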 Raw values are not corrected between plates. Reagents against one gene are numbered here. No sequences are given here. Not stated in the record: the amount of reagent.

gene	reagent no.	G2 robust z-score	G2 cells, % of GMNN control	raw share of cells in G2 (%)	Call
RASSF10 (GeneID 644943)	1	-0.528	-0.748	2.93	inactive
RASSF10 (GeneID 644943)	2	0.0478	3.3	4.9	inactive
RASSF10 (GeneID 644943)	3	-0.275	1.03	3.64	inactive
IDO1 (GeneID 3620)	1	0.576	7.02	8.36	inactive
IDO1 (GeneID 3620)	2	0.656	7.58	7.8	inactive
IDO1 (GeneID 3620)	3	0.0933	3.62	5.53	inactive
SLC22A23 (GeneID 63027)	1	-0.0126	2.88	5.83	inactive
SLC22A23 (GeneID 63027)	2	2.35	19.5	13.3	inactive
SLC22A23 (GeneID 63027)	3	3.43	27.1	9.85	inactive
LYPD1 (GeneID 116372)	1	-0.101	2.26	5.33	inactive
LYPD1 (GeneID 116372)	2	-0.846	-2.99	3.68	inactive
LYPD1 (GeneID 116372)	3	-1.08	-4.61	3.53	inactive
RPL27AP2 (GeneID 391124)	1	-0.129	2.06	4.56	inactive
RPL27AP2 (GeneID 391124)	2	-0.782	-2.53	2.51	inactive
RPL27AP2 (GeneID 391124)	3	-0.145	1.95	5.6	inactive
WFDC6 (GeneID 140870)	1	-0.000817	2.96	7.37	inactive
WFDC6 (GeneID 140870)	2	-0.388	0.238	4.79	inactive
WFDC6 (GeneID 140870)	3	-0.00339	2.94	5.94	inactive
TCIRG1 (GeneID 10312)	1	6.1	45.9	25.6	active
TCIRG1 (GeneID 10312)	2	-1.34	-6.43	1.76	inactive
TCIRG1 (GeneID 10312)	3	-0.999	-4.06	4.88	inactive
LRRC3 (GeneID 81543)	1	-1.1	-4.74	3.46	inactive
LRRC3 (GeneID 81543)	2	-1.23	-5.68	2.68	inactive
LRRC3 (GeneID 81543)	3	7	52.2	23.1	active
TRAF1 (GeneID 7185)	1	0.592	7.13	8.61	inactive
TRAF1 (GeneID 7185)	2	-0.399	0.158	4.32	inactive
TRAF1 (GeneID 7185)	3	-0.449	-0.19	4.41	inactive
POMGNT1 (GeneID 55624)	1	0.601	7.19	7.33	inactive
POMGNT1 (GeneID 55624)	2	2.43	20.1	11.6	inactive
POMGNT1 (GeneID 55624)	3	0.404	5.81	8.98	inactive

Single entries from above:
Value of SLC22A23 (GeneID 63027) #1 in “raw share of cells in G2 (%)”: 5.83
Entry of WFDC6 (GeneID 140870) #2 under “G2 robust z-score”: -0.388
LYPD1 (GeneID 116372) #3, G2 cells, % of GMNN control = -4.61
IDO1 (GeneID 3620) #2, Call = inactive
For “raw share of cells in G2 (%)”, WFDC6 (GeneID 140870) #1 shows 7.37
